PubChem BioAssay AID504834 (National Center for Advancing Translational Sciences (NCATS), 2011)
Hit rate of the full screen: of about 320,000 compounds, about 22,000 (6.9%) were called active. Inconclusive means that the source gave no clear call. Such entries were picked first, then a sample of the others. Calls come from the whole dose curve; as a rule, active = well fitted inhibition curve with a large enough effect; inconclusive = small, poorly fitted or top-dose-only effect, or another doubt; inactive = no such curve, though single readings can be large or run the other way. A potency beside an inconclusive call is a rough fit, not a confirmed value.

assay: Primary qHTS for delayed death inhibitors of the malarial parasite plastid, 96 hour incubation; details: P. falciparum luciferase reporter growth; series mostly up to 28.7 µM
In short: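 Cell-based qHTS: luciferase-tagged P. falciparum in erythrocytes (2% hematocrit, 0.05% parasitemia final) incubated with compounds for 96 hours, 37 C, 5% CO2; luciferase detection reagent then added and luminescence measured.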
% is set by controls: 0 for no effect and ±100 for the full control effect; potency is the fitted concentration of half-maximal effect.

SMILES	Potency	activity change, negative = inhibition
O=C(O)CC1(CC(=O)Nc2ccc(F)cc2F)CCCCC1	inconclusive: 2.08 µM [inhibitor, partial curve, poor fit]	–
COc1ccc(N(C)S(=O)(=O)c2cccc(C(=O)NC3CCC(C)CC3)c2)cc1 (configuration not stated)	inconclusive: 18.5 µM [inhibitor, single point]	–
CCOC(=O)c1cccc(NS(=O)(=O)c2c(C)[nH]c(C)c2C(=O)N2CCCC2)c1	inconclusive: 10.4 µM [inhibitor, single point]	–
NC(=O)C[C@@H]1NC(=O)c2cc([N+](=O)[O-])cc(F)c2NCCCC[C@@H](C(N)=O)NC(=O)[C@H](CO)NC1=O	inconclusive: 7.38 µM [inhibitor, partial curve, poor fit]	–
CCc1nc(SCC(=O)NC2CC2)c2c(C)c(C)sc2n1	active: 4.65 µM	–
Cc1ccc(Sc2ccc(C(=O)NC(C)C)cc2[N+](=O)[O-])cc1	inconclusive: 13.1 µM [inhibitor, single point]	–
CCOC(=O)c1ccc(NC(=S)N(CCN2CCCCCC2)Cc2cccs2)cc1	inactive	–
Cc1ccc(C(=O)CCC(=O)NC2=NCCS2)cc1	inconclusive: 18.5 µM [inhibitor, single point]	–
CCC(C(=O)O)C1CCC(C)C(C(C)C(O)C(C)C(=O)C(CC)C2OC3(C=CC(O)[C@@]4(CC[C@](C)(C5CC[C@@](O)(CC)C(C)O5)O4)O3)C(C)CC2C)O1 (some centres not stated)	active: 0.213 µM	–
CC(=O)c1sc2nc(SCC(=O)NCCc3ccccc3)[nH]c(=O)c2c1C	inconclusive: 8.28 µM [inhibitor, partial curve, poor fit]	–
NNc1ncnc2sc3c(c12)CCC3	inconclusive: 10.4 µM [inhibitor, partial curve, poor fit]	–
CSc1ccccc1NC(=O)c1ccc([N+](=O)[O-])cc1	inactive	–
CSc1cccc(NC(=O)c2sc3nc4n(c(=O)c3c2C)CCC4)c1	inconclusive: 18.5 µM [inhibitor, single point]	–
CCOc1ccc(C(=O)N2CCC3(CC2)NCCc2[nH]cnc23)cc1OCC	inactive	–
COC(=O)c1cccc(NC(=O)c2nn(C)c(=O)c3ccccc23)c1	inconclusive: 10.4 µM [inhibitor, single point]	–
CCN(c1ccccc1)S(=O)(=O)c1cccc(C(=O)O)c1	inconclusive: 8.28 µM [inhibitor, partial curve, poor fit]	–
Cc1ccc(C(=O)COC(=O)c2ccc3c(c2)C(=O)N(c2cccc4ncccc24)C3=O)cc1	inactive	–
COC(=O)c1c(C)oc(C)c1S(=O)(=O)NC(c1ccccc1)c1ccccc1	inconclusive: 11.7 µM [inhibitor, partial curve, poor fit]	–
Cc1ccc(-c2cc(C(=O)Nc3sc4c(c3C(=O)NCc3ccco3)CCC4)[nH]n2)c(O)c1	inconclusive: 0.928 µM [inhibitor, full curve, poor fit]	–
Cc1cc(C)c(S(=O)(=O)Nc2ccccc2C(=O)N2CCOCC2)c(C)c1	inactive	–
Cc1nn(Cc2ccccc2)c(C)c1/C=N/NC(=O)c1ccccc1O	inconclusive: 0.0029 µM [inhibitor, full curve, poor fit]	–
COc1ccc(C(=O)OCc2cc(C)ccc2C)cc1S(=O)(=O)N1CCCC1	active: 10.4 µM	–
COc1ccc(CCNC(=O)C(=O)NCC2OCCN2S(=O)(=O)c2ccc3c(c2)OCCO3)cc1 (configuration not stated)	inconclusive: 20.8 µM [inhibitor, single point]	–

Sorted by heavy-atom count (rising): some entries from above
SMILES	Potency	activity change, negative = inhibition
NNc1ncnc2sc3c(c12)CCC3	inconclusive: 10.4 µM [inhibitor, partial curve, poor fit]	–
CCN(c1ccccc1)S(=O)(=O)c1cccc(C(=O)O)c1	inconclusive: 8.28 µM [inhibitor, partial curve, poor fit]	–
COc1ccc(CCNC(=O)C(=O)NCC2OCCN2S(=O)(=O)c2ccc3c(c2)OCCO3)cc1 (configuration not stated)	inconclusive: 20.8 µM [inhibitor, single point]	–

Additional entries

SMILES	Potency	activity change, negative = inhibition
COc1ccc(Cl)cc1C(=O)NNC1CC(=O)N(Cc2ccc(Cl)cc2)C1=O (configuration not stated)	inactive	–
Cc1csc(NC(=O)Nc2ccccc2[N+](=O)[O-])n1	inconclusive: 18.5 µM [inhibitor, single point]	–
N#Cc1c(Nc2cccc(F)c2)sc2c(O)cc(=O)[nH]c12	inactive	–
NC(=O)CSc1ccc(Br)cc1	inconclusive: 16.5 µM [inhibitor, single point]	–
CCOC(=O)C1CCN(c2nc3ccccc3nc2C(C#N)C(=O)OC(C)C)CC1 (configuration not stated)	inactive	–
CCc1ccccc1NC(=O)Cn1nnc(C(=O)NCc2cccc(OC)c2)c1N	inconclusive: 1.17 µM [inhibitor, partial curve]	–
NCc1cc2c3c(c1)CCCN3CCC2	active: 7.38 µM	–
COc1ccc(C(=O)N(CN2CCCC2=O)c2ccc(C)cc2)cc1	inconclusive: 0.522 µM [inhibitor, partial curve, poor fit]	–
NC(=O)CSCc1nc2ccccc2s1	inactive	–
O=C(CSc1nnc2ccc3ccccc3n12)N1CCOCC1	inactive	–
CC(Nc1[nH]c(=O)n(C)c(=O)c1N=O)c1ccccc1 (configuration not stated)	inactive	–
O=C(O)CCC(=O)NNc1ccccc1[N+](=O)[O-]	inactive	–
COc1cccc(C(=O)NNC(=S)NC2CCCCC2)c1	inconclusive: 18.5 µM [inhibitor, single point]	–
CSc1nc(NCc2ccco2)c2c3c(sc2n1)CN(C)CC3	–	inactive: -2.66% [at 5.75 µM]
CC(=O)Nc1nnc(/C=C/c2cccc([N+](=O)[O-])c2)s1	inconclusive: 5.86 µM [inhibitor, partial curve]	–
N#C/C(=C(/O)COC(=O)COc1cccc(Br)c1)c1nc2ccccc2[nH]1	inconclusive: 16.5 µM [inhibitor, partial curve, poor fit]	–
O=C(NCC1COc2ccccc2O1)c1ccccc1 (configuration not stated)	inactive	–
Cc1ccc(Cn2ncc3c(N4CCN(c5ccccc5C)CC4)ncnc32)cc1	inconclusive: 18.5 µM [inhibitor, partial curve, poor fit]	–
COc1cc(OC)cc(C(=O)N[C@H](C(=O)OCC(=O)Nc2ccc(C(C)C)cc2)C(C)C)c1	inactive	–
c1ccc2nc(SCc3cn4ccccc4n3)cnc2c1	inconclusive: 18.5 µM [inhibitor, single point]	–
CCC(=O)c1cn(CC(=O)NCC2CCCO2)c2ccccc12 (configuration not stated)	inactive	–
Cc1onc(-c2ccccc2Cl)c1C(=O)Nc1ccc2c(c1)OCO2	inconclusive: 9.28 µM [inhibitor, single point]	–
O=C(Cc1cccc(C(F)(F)F)c1)NCC(c1ccco1)N1CCCCC1 (configuration not stated)	inconclusive: 11.7 µM [inhibitor, single point]	–
O=C(N/N=C/C(Br)=C/c1ccccc1)c1cnccn1	inconclusive: 11.7 µM [inhibitor, single point]	–

SMILES	Potency	activity change, negative = inhibition
CCOC(=O)c1oc2cc(O)c(CC)cc2c(=O)c1-c1cscn1	inactive	–
COc1ccc(OC)c(-n2nnnc2SCC(=O)Nc2ccc3c(c2)OCCO3)c1	active: 10.4 µM	–
Cc1cccc(C(=O)N2CCC(N3CCC(C(=O)N4CCOCC4)CC3)CC2)c1	inactive	–
CCOC(=O)NC(NC(=S)Nc1ccccc1[N+](=O)[O-])C(Cl)(Cl)Cl (configuration not stated)	inconclusive: 20.8 µM [inhibitor, partial curve, poor fit]	–
CCOc1ccc(C(C(=O)NC(C)(C)C)N(CCOC)C(=O)CCC(=O)Nc2nccs2)cc1 (configuration not stated)	inactive	–
Cc1ccc(NC(=O)N2CCCC2C(=O)NCc2ccccc2Cl)cc1 (configuration not stated)	active: 2.62 µM	–
FC(F)(F)c1cccc(-c2nc(-c3ccncc3)no2)c1	inactive	–
Clc1ccccc1/C=N/NC1=Nc2cccc3cccc1c23	inactive	–
Cc1ccc(C)n1-c1ccc(C(=O)N/N=C/c2ccncc2)cc1	inconclusive: 11.7 µM [inhibitor, partial curve, poor fit]	–
CCOC(=O)c1sc(NC(=O)c2cc(-c3ccc(C)cc3)nc3ccccc23)c(C#N)c1C	inactive	–
CCOC(=O)C1=C(N)OC2=C(C(=O)CC(C)(C)C2)C1c1ccc(CC)s1 (configuration not stated)	active: 4.15 µM	–
O=C(NCc1ccccc1Cl)c1cc([N+](=O)[O-])ccc1Cl	inconclusive: 18.5 µM [inhibitor, single point]	–
O=C(NCc1cccnc1)c1ccc(S(=O)(=O)Nc2ccccc2)cc1	inactive	–
Cc1ccc(NC(=S)N2CCN(Cc3ccccc3)CC2)c(C)c1	inconclusive: 2.08 µM [inhibitor, partial curve, poor fit]	–
Cc1csc(NC(=O)C2CCCN(S(=O)(=O)c3ccc(Br)s3)C2)n1 (configuration not stated)	inconclusive: 0.0026 µM [inhibitor, full curve, poor fit]	–
CC1(C(=O)OCC(=O)Nc2ccc3ccccc3c2)CC1(Cl)Cl (configuration not stated)	inactive	–
NS(=O)(=O)c1ccc(NS(=O)(=O)c2ccc(NC(=O)C3CC3)cc2)cc1	inactive	–
CCc1nn2c(N(C)CCO)cc(C)nc2c1-c1ccc(F)cc1	inconclusive: 1.04 µM [inhibitor, partial curve, poor fit]	–
Cc1cccc(NC(=O)NNS(=O)(=O)c2ccc(F)cc2)c1	inconclusive: 18.5 µM [inhibitor, single point]	–
COC(=O)/C(=C\c1ccc2c(c1)c1ccccc1n2C)NC(=O)c1ccccc1	active: 1.17 µM	–
COC(=O)C(CO)Nc1ncnc2onc(-c3ccc(F)cc3)c12 (configuration not stated)	inconclusive: 10.4 µM [inhibitor, single point]	–
Nc1ncncc1-c1ccc(Cl)cc1	inconclusive: 18.5 µM [inhibitor, single point]	–
CCCC1=C(C(=O)OCC)C(c2ccc(F)cc2)n2ncnc2N1 (configuration not stated)	inconclusive: 10.4 µM [inhibitor, single point]	–
CC(=O)c1ccc(NC(=O)CN2CCCC2)cc1	inconclusive: 11.7 µM [inhibitor, single point]	–
